Test results: the supplement of paper PMC4604168 (melanoma cell lines)
This is one part of the list. Many values rest on one well or one pass, so single values are uncertain.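 The apoptosis fraction was the count of cleaved-PARP antibody-stained nuclei relative to all DNA-stained nuclei, imaged in 1,536-well plates. Screening doses were set so most cells survived, and baseline and induced cleaved-PARP levels vary greatly across cell lines.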

test system: UACC62; test: cleaved PARP positive nuclei fraction relative to DMSO control; melanoma cells; higher = more apoptosis; settings: library dose: low library concentration; 72 h

| Structure (SMILES) | cleaved PARP positive nuclei fraction [%] |
| --- | --- |
| CO[C@H]1C[C@@H]2CC[C@@H](C)[C@@](O)(O2)C(=O)C(=O)N2CCCC[C@H]2C(=O)O[C@H]([C@H](C)C[C@@H]2CC[C@@H](OCCO)[C@H](OC)C2)CC(=O)[C@H](C)/C=C(\C)[C@@H](O)[C@@H](OC)C(=O)[C@H](C)C[C@H](C)/C=C/C=C/C=C/1C [everolimus] + CCCCCCCCCCCC1=C(O)C(=O)C=C(O)C1=O [Embelin] (first compound 0.02 µM, partner dose 1.2 µM) | 261 |
| CO[C@H]1C[C@@H]2CC[C@@H](C)[C@@](O)(O2)C(=O)C(=O)N2CCCC[C@H]2C(=O)O[C@H]([C@H](C)C[C@@H]2CC[C@@H](OCCO)[C@H](OC)C2)CC(=O)[C@H](C)/C=C(\C)[C@@H](O)[C@@H](OC)C(=O)[C@H](C)C[C@H](C)/C=C/C=C/C=C/1C [everolimus] + COC(=O)c1sccc1S(=O)(=O)Nc1ccc(Nc2ccccc2)cc1OC [GSK0660] (first compound 0.02 µM, partner dose 1 µM) | 370 |
| CO[C@H]1C[C@@H]2CC[C@@H](C)[C@@](O)(O2)C(=O)C(=O)N2CCCC[C@H]2C(=O)O[C@H]([C@H](C)C[C@@H]2CC[C@@H](OCCO)[C@H](OC)C2)CC(=O)[C@H](C)/C=C(\C)[C@@H](O)[C@@H](OC)C(=O)[C@H](C)C[C@H](C)/C=C/C=C/C=C/1C [everolimus] + C[C@@H]1CCN(C(=O)CC#N)C[C@@H]1N(C)c1ncnc2[nH]ccc12 [CP690550] (first compound 0.02 µM, partner dose 1 µM) | 186 |
| CO[C@H]1C[C@@H]2CC[C@@H](C)[C@@](O)(O2)C(=O)C(=O)N2CCCC[C@H]2C(=O)O[C@H]([C@H](C)C[C@@H]2CC[C@@H](OCCO)[C@H](OC)C2)CC(=O)[C@H](C)/C=C(\C)[C@@H](O)[C@@H](OC)C(=O)[C@H](C)C[C@H](C)/C=C/C=C/C=C/1C [everolimus] + Oc1cc(-c2nc(-c3ccccc3)[nH]c2-c2ccncc2)ccc1Cl [L779450] (first compound 0.02 µM, partner dose 0.2 µM) | 270 |
| CO[C@H]1C[C@@H]2CC[C@@H](C)[C@@](O)(O2)C(=O)C(=O)N2CCCC[C@H]2C(=O)O[C@H]([C@H](C)C[C@@H]2CC[C@@H](OCCO)[C@H](OC)C2)CC(=O)[C@H](C)/C=C(\C)[C@@H](O)[C@@H](OC)C(=O)[C@H](C)C[C@H](C)/C=C/C=C/C=C/1C [everolimus] + Cn1cncc1[C@@](N)(c1ccc(Cl)cc1)c1ccc2c(c1)c(-c1cccc(Cl)c1)cc(=O)n2C [tipifarnib] (first compound 0.02 µM, partner dose 0.01 µM) | 619 |
| CO[C@H]1C[C@@H]2CC[C@@H](C)[C@@](O)(O2)C(=O)C(=O)N2CCCC[C@H]2C(=O)O[C@H]([C@H](C)C[C@@H]2CC[C@@H](OCCO)[C@H](OC)C2)CC(=O)[C@H](C)/C=C(\C)[C@@H](O)[C@@H](OC)C(=O)[C@H](C)C[C@H](C)/C=C/C=C/C=C/1C [everolimus] + NCC(=O)Nc1ccc(-n2nc(C(F)(F)F)cc2-c2ccc3c(ccc4ccccc43)c2)cc1 [OSU03012] (first compound 0.02 µM, partner dose 1 µM) | 142 |
| CO[C@H]1C[C@@H]2CC[C@@H](C)[C@@](O)(O2)C(=O)C(=O)N2CCCC[C@H]2C(=O)O[C@H]([C@H](C)C[C@@H]2CC[C@@H](OCCO)[C@H](OC)C2)CC(=O)[C@H](C)/C=C(\C)[C@@H](O)[C@@H](OC)C(=O)[C@H](C)C[C@H](C)/C=C/C=C/C=C/1C [everolimus] + NC(=O)Nc1cc(-c2cccc(F)c2)sc1C(=O)N[C@H]1CCCNC1 [AZD7762] (first compound 0.02 µM, partner dose 0.02 µM) | 150 |
| CO[C@H]1C[C@@H]2CC[C@@H](C)[C@@](O)(O2)C(=O)C(=O)N2CCCC[C@H]2C(=O)O[C@H]([C@H](C)C[C@@H]2CC[C@@H](OCCO)[C@H](OC)C2)CC(=O)[C@H](C)/C=C(\C)[C@@H](O)[C@@H](OC)C(=O)[C@H](C)C[C@H](C)/C=C/C=C/C=C/1C [everolimus] + O=C(Nc1ccccc1)c1cc([N+](=O)[O-])ccc1Cl [GW9662] (first compound 0.02 µM, partner dose 2 µM) | 105 |
